Reference: article PMC7048395
No constants are given. Whether binding was seen depends on the method and setting. Binding seen in cells or lysates may run through a third protein. Some binding calls cover weakened binding; strength is not graded here.

Chains of the proteins cited; added tags and fusions are not shown. Lines headed by an entry give the natural chain unless they say otherwise; changes in a name come on top.
UniProt P0C0S5: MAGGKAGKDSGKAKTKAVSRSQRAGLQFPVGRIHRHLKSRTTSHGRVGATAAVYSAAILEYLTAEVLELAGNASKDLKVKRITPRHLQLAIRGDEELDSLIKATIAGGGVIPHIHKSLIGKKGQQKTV

Target: endogenous H2A.Z.1 tagged with 3xFlag-2xStrep (U2OS) (human (endogenous in U2OS)) (UniProt P0C0S5)
Assay: co-IP; soluble nuclear extracts of U2OS cells expressing tagged H2A.Z.1, tagged H2A.Z.2 or no tag; anti-Flag resin followed by Flag peptide elution; amount of cells adapted to similar amounts of precipitated H2A.Z isoform; western blot of the Flag-eluted proteins

- binding: binds
B1: PHF14 (endogenous, U2OS) (protein, UniProt O94880 1-948)
chain: MDRSSKRRQVKPLAASLLEALDYDSSDDSDFKVGDASDSEGSGNGSEDASKDSGEGSCSDSEENILEEELNEDIKVKEEQLKNSAEEEVLSSEKQLIKMEKKEEEENGERPRKKKEKEKEKEKEKEKEKEREKEKEKATVSENVAASAAATTPATSPPAVNTSPSVPTTTTATEEQVSEPKKWNLRRNRPLLDFVSMEELNDMDDYDSEDDNDWRPTVVKRKGRSASQKEGSDGDNEDDEDEGSGSDEDENDEGNDEDHSSPASEGGCKKKKSKVLSRNSADDEELTNDSLTLSQSKSNEDSLILEKSQNWSSQKMDHILICCVCLGDNSEDADEIIQCDNCGITVHEGCYGVDGESDSIMSSASENSTEPWFCDACKCGVSPSCELCPNQDGIFKETDAGRWVHIVCALYVPGVAFGDIDKLRPVTLTEMNYSKYGAKECSFCEDPRFARTGVCISCDAGMCRAYFHVTCAQKEGLLSEAAAEEDIADPFFAYCKQHADRLDRKWKRKNYLALQSYCKMSLQEREKQLSPEAQARINARLQQYRAKAELARSTRPQAWVPREKLPRPLTSSASAIRKLMRKAELMGISTDIFPVDNSDTSSSVDGRRKHKQPALTADFVNYYFERNMRMIQIQENMAEQKNIKDKLENEQEKLHVEYNKLCESLEELQNLNGKLRSEGQGIWALLGRITGQKLNIPAILRAPKERKPSKKEGGTQKTSTLPAVLYSCGICKKNHDQHLLLLCDTCKLHYHLGCLDPPLTRMPRKTKNSYWQCSECDQAGSSDMEADMAMETLPDGTKRSRRQIKEPVKFVPQDVPPEPKKIPIRNTRTRGRKRSFVPEEEKHEERVPRERRQRQSVLQKKPKAEDLRTECATCKGTGDNENLVRCDECRLCYHFGCLDPPLKKSPKQTGYGWICQECDSSSSKEDENEAERKNISQELNMEQKNPKK
